PubChem BioAssay AID720505 | Drosophila RNAi Screening Center, 2013

- Screen: 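Genes needed for store-operated calcium entry in fly cells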 (primary screen)
- System: Drosophila S2R+ cells
- Reagents: long dsRNA against Drosophila genes
- Conditions: thapsigargin (2 µM) in calcium-free buffer to empty internal stores, then 2 mM calcium added back
- Measured: 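Fluo-4 signal in 384-well plates read on a FLIPR after thapsigargin (2 µM, calcium-free) store depletion and 2 mM calcium add-back; unnormalised mean endpoint per well; screen run twice, selected wells retested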
- Direction: calcium signal: higher = more calcium entry after store depletion
- Call rule: 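About 1500 genes called as lowering calcium entry, by varying amounts, judged against per-plate control wells with STIM1 as positive and Rho1 as negative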
- Calls: active = called as lowering calcium entry; inactive = not called
The deposit covers about 20,000 reagents; below is an unselected part of those that have a named target and a result. In the full data, about 2,100 (10%) are marked active. 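Raw plate signals without normalisation; calls rest on control-based scores that were not deposited; replicate 2 separates called from uncalled poorly.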 Unmarked entries are inactive. The numbers tell different reagents against one gene apart. Not stated in the record: the amount of reagent, the time to read-out.

gene knocked down | reagent | calcium signal, replicate 1 | calcium signal, replicate 2
Vamp7 | 1 | 125 | 213
boss | 1 | 238 | 148
t-Grip84 | 1 | 97.2 | 81.1
CG9109 | 1 | 122 | 271
CG34183 | 1 | 71.9 (active) | 145
CG5498 | 1 | 115 | 116
CG11426 | 1 | 72.7 | 152
CG13361 | 1 | 123 | 140
Idh3a | 1 | 126 | 96.2
hob | 1 | 109 | 99
Ag5r | 1 | 140 | 97.8
CG30094 | 1 | 75.6 | 162
Lkb1 | 1 | 94.4 | 93
eIF4B | 1 | 93.8 | 100
Grip91 | 1 | 151 | 127
Ilp7 | 1 | 190 | 81.8
CG9498 | 1 | 66.5 (active) | 177
CG11226 | 1 | 72.1 | 105
CG7655 | 1 | 193 | 291
CG6296 | 1 | 144 | 159
Srp68 | 1 | 160 | 98.4
CG10208 | 1 | 96 | 103
tei | 1 | 112 | 183
SelR | 1 | 160 | 80.8
CG13385 | 1 | 182 | 132
CG13230 | 1 | 79.7 | 122
Hk | 1 | 116 | 132
Hk | 2 | 63.2 (active) | 119
FIG4 | 1 | 88.4 | 117
p53 | 1 | 164 | 251
CG9445 | 1 | 107 | 109
dsf | 1 | 133 | 121
CG13539 | 1 | 83.5 | 135
CG9308 | 1 | 168 | 105
CG14868 | 1 | 82 | 154
obst-H | 1 | 71.2 | 105
obst-H | 2 | 67.2 | 93.5
CG11373 | 1 | 139 | 179
Uba5 | 1 | 83.3 | 88.3
santa-maria | 1 | 126 | 86.6
santa-maria | 2 | 128 | 167
Bbd | 1 | 112 | 121
nAChRalpha6 | 1 | 184 | 106
nAChRalpha6 | 2 | 136 | 81.8
nAChRalpha6 | 3 | 111 | 147
unc | 1 | 147 | 94.3
kappaTry | 1 | 140 | 201
CG12107 | 1 | 113 | 74.7
CG3906 | 1 | 162 | 102
CG7006 | 1 | 164 | 253
Dis3l2 | 1 | 149 | 104
NPF | 1 | 93.4 | 105
Hsc70-2 | 1 | 117 | 171
E5 | 1 | 95.9 | 174
E5 | 2 | 86.4 | 148
CG8149 | 1 | 139 | 96.8

Copied from the entries so far (4 entries):
gene knocked down | reagent | calcium signal, replicate 1 | calcium signal, replicate 2
CG11226 | 1 | 72.1 | 105
CG7655 | 1 | 193 | 291
CG6296 | 1 | 144 | 159
Srp68 | 1 | 160 | 98.4
